Assay results taken from patent US20230192765A1 (UNIVERSITÀ DEGLI STUDI DI ROMA "TOR VERGATA", priority 2020, published 2023).

experiment: general procedure: Fmoc solid-phase peptide synthesis; Rink Amide MBHA resin (0.65 mmol/g, 100-200 mesh); FastMoc methodology; conditions: whole synthesis, analytical HPLC-MS (Phenomenex Kinetex XB-C18, Agilent 1260 Infinity II, 6130 quadrupole LC/MS), scale of the general procedure 0.1 mmol

Substance | final LC-MS purity [%]
CF-GLN- Y-IDLDL | 99
CF-GLN-pY-IDLDL | 93
CF-GLN-pY-IDLDW | 96
CF-GLN-pY-IDLDW-GRKKRRQRRR | 90
CF-GLN-pY-IDLEW | 97
GLN- Y-IDLDL | 99
GLN-F2Pmp-IDLDW | 94
GLN-pY-IDLDL | 95
LN-pY-IDLDF | 93
LN-pY-IDLDL | 92
LN-pY-IDLDW | 95
LN-pY-IDLDW-GRKKRRQRRR | 95
LN-pY-IDLEW | 98
N-pY-IDLDL (NYIDLDL; phosphotyrosine; MOD_RES (2)..(2) PHOSPHORYLATION) | 92
